Values quoted from earlier work, collected in patent US20230113378A1, “Methods Of Treating Multiple Sclerosis” (priority 2021, published 2023).
At least one structure is not confirmed: it was looked up by name or label, or the drawing left a doubt.

Legend:
[1] = test system: SARS-CoV-2 IgG antibodies; conditions: continuous fingolimod treatment; 1 month after 2nd dose of BNT162b2; cited from earlier work
influenza vaccine = conditions: observed previously; cited from earlier work

In the case of CCCCCCCCc1ccc(CCC(N)(CO)CO)cc1 [fingolimod], the “Patients in whom the vaccine failed to induce a humoral immune response (SARS-CoV-2 IgG)” value [1] is listed as 25 of 26 and the “Vaccination response to the influenza vaccine” value (influenza vaccine) is listed as “reduced vaccination response”.
